This is an account of results in PubChem BioAssay AID493014 (National Center for Advancing Translational Sciences (NCATS), 2011).

A word on the AC50: it is the concentration giving half of the maximal activity seen.

The nature of the assay: qHTS Assay to Find Inhibitors of Chronic Active B-Cell Receptor Signaling. The conditions noted are these: ABC-DLBCL IkBa-CBG/CBR reporter, luminescence ratio (green luciferase fused to IkBa over red control in TMD8 lymphoma cells), 4 h. The essentials:
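Compounds up to 46 uM were incubated four hours with TMD8 cells whose green CBG68 luciferase is fused to IkappaBalpha; red CBR luminescence normalised the signal, and concentration-effect curves were fitted to fusion, red and ratio data.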

The mark [1] stands for this setting: measured here: CBR red luminescence, cell number.
[2] abbreviates: measured here: IkBa-CBG green luminescence.

This is one part of the list. These are further read-outs of the screen, such as a control signal, another cell line or another target. No call is given for them. Most of these compounds were active or inconclusive in the main read-out, so they are no random draw. Words in brackets tell the shape of the fitted curve; partial curves, single points and poor fits give uncertain potencies.

`COc1ccccc1NC(=O)CCSCCC(=O)Nc1ccccc1OC`: the AC50 under setting [1] was 20.6 µM [falling, single point]. On the same count and under the same terms, as for `Cc1ccn2cc(-c3cccc(NC(=O)CCC(=O)O)c3)nc2c1`, the figure is 35.5 µM [falling, single point]. Same read-out and setting: next, `O=C(CN1CCN(S(=O)(=O)c2ccccc2)CC1)Nc1ccc(Cl)cn1`: 7.08 µM [rising, full curve, poor fit]; `COc1ccc(OC)c(C2=NOC(C(=O)N3CCCc4ccccc43)C2)c1` (configuration not stated): 1.3 µM [rising, full curve, poor fit].

`CCOC(=O)c1c(C)n(C)c2ccc(OC)c(NC(=O)CN3CCSCC3)c12`: the AC50 reads like this: under setting [1], 12.6 µM [rising, partial curve]; under setting [2], 12.6 µM [falling, partial curve, poor fit]. In the case of `Nc1cc(-c2ccc(OC(F)(F)F)cc2)nn1-c1ccc(Cl)c(Cl)c1`, the AC50 under setting [1] is 10 µM [rising, partial curve]. On the same count and under the same terms, next, `O=C(Nc1ccc(C(=O)O)cc1)Nc1ccc([N+](=O)[O-])cc1`: 6.31 µM [falling, partial curve]; `CNC(=O)c1cc(C(=O)c2ccccc2C(F)(F)F)c[nH]1`: 5.01 µM [rising, partial curve, poor fit].

On to `CC1=C(/C=C/C(C)=C/C=C/C(C)=C/C(=O)Nc2ccc(O)cc2)C(C)(C)CCC1`, for which, under setting [1], the AC50 was 8.2 µM [rising, partial curve, poor fit]. Same read-out and setting: next, `CCCCSc1n[nH]c(N)n1`: 10.3 µM [rising, partial curve, poor fit]. Still for that read-out and setting: as for `COc1ccc(C(=O)Nc2ccc3[nH]ncc3c2)cc1`, the figure is 12.6 µM [falling, partial curve]; as for `Cc1cccc(NC(=O)c2cccc(C(F)(F)F)c2)c1`, 1.41 µM [rising, full curve]; as for `O=C(Nc1ccc(Cl)cc1C(=O)O)c1ccc2c(c1)C(=O)N(Cc1ccco1)C2=O`, 11.6 µM [falling, partial curve]. The same measure, in the same setting: next, `O=C(CNC(=O)c1ccccc1F)N/N=C/c1ccco1`: 15.8 µM [falling, single point]; `Cc1ccc(-n2nnnc2SCC(=O)Nc2cccc(NC(=O)c3ccco3)c2)cc1C`: 1.58 µM [falling, full curve, poor fit]. As to `COc1ccc2c(c1)c(CC(=O)Nc1cc(C)ccc1C)c(C)n2C(=O)c1ccc(Cl)cc1`, the AC50 under setting [1] is 2.31 µM [rising, single point].

Take `O=C(NCc1ccc(Cl)cc1)N1CCN(Cc2ccccc2)CC1`: the AC50 under setting [1] was 11.2 µM [falling, partial curve, poor fit].

On to `O=C(N/N=C/c1cc([N+](=O)[O-])cc(Br)c1O)C12CC3CCC(CC(C3)C1)C2`, for which the AC50 under setting [1] is 35.5 µM [rising, single point]. On to `CC1=NNC(=O)C(CC(=O)Nc2ccc(Cl)c(Cl)c2)C1` (configuration not stated), for which the AC50 under setting [1] was 18.4 µM [rising, single point]. Still for that read-out and setting: next, `COc1ccc(C(=O)Cc2cc3cccc(OC)c3oc2=O)cc1`: 1.12 µM [falling, full curve, poor fit]; `Cc1ccc(/C=C/C(=O)OC(C)C(=O)Nc2ncc(Cl)cc2Cl)o1` (configuration not stated): 29.1 µM [rising, single point]. On the same count and under the same terms, as for `O=C(COC(=O)c1cc2ccccc2oc1=O)Nc1ccc(F)cc1F`, the figure is 31.6 µM [falling, single point]; as for `CCOC(=O)C1C(=O)NC(N2CCc3ccccc32)=NC1c1ccccc1` (configuration not stated), 31.6 µM [rising, single point]. Same read-out and setting: next, `Nc1ccccc1Sc1ccc(C(F)(F)F)cc1[N+](=O)[O-]`: 11.2 µM [rising, partial curve, poor fit]; `NNC(=O)c1cncc(Br)c1`: 20 µM [falling, partial curve, poor fit]; `O=C(C1=NN[C@@H]2C(=O)N(Cc3ccccc3)C(=O)[C@H]12)c1ccc([N+](=O)[O-])cc1`: 2.24 µM [rising, full curve, poor fit]. Turning to `CCOc1ccccc1C(=O)N/N=C/c1coc2ccc(C)cc2c1=O`, the AC50 by setting is: under setting [1], 35.5 µM [rising, single point]; under setting [2], 35.5 µM [falling, single point]. For the compound `COCCN1Cc2cccc(C(=O)Nc3ccc4c(c3)OCCO4)c2C1=O`, the AC50 under setting [1] is 2.91 µM [rising, full curve, poor fit].

`COc1ccc(C(=O)CC(=O)C(=O)Nc2ccc(Cl)cc2)cc1`: the AC50 under setting [1] is 4.47 µM [falling, full curve]. Turning to `COc1cc(C(O)P(=O)(OCC(C)C)c2ccc(N(C)C)cc2)cc(OC)c1OC` (configuration not stated), the AC50 under setting [1] is 1.26 µM [rising, full curve, poor fit].

On to `CCCN(CC(=O)Nc1ccccc1OC)C(=O)c1cc(-c2cccs2)nn1-c1ccccc1`, for which the AC50 under setting [1] was 20.6 µM [falling, partial curve, poor fit]. On to `Cc1ccccc1CC(=O)N1CCCC(CCC(=O)N2CCN(c3ccccn3)CC2)C1` (configuration not stated), for which, under setting [1], the AC50 was 35.5 µM [falling, single point]. On the same count and under the same terms, as for `Cc1c(NS(=O)(=O)c2cccc(C(=O)N3CCC(C(N)=O)CC3)c2)c(=O)n(-c2ccccc2)n1C`, the figure is 29.1 µM [rising, single point]; as for `CC(C)Cc1ccc(C(=O)NCCOc2ccccc2)o1`, 1 µM [rising, full curve, poor fit]. Regarding `C=C1CCC[C@]2(C)C[C@H]3OC(=O)C(CNCC(C)C)[C@H]3CC12` (some centres not stated), the concentration at half-maximal activity (AC50) is, setting by setting: under setting [1], 17.8 µM [falling, partial curve]; under setting [2], 35.5 µM [rising, partial curve, poor fit]. On to `NC(=O)Nc1ccccc1C(=O)Nc1ccc2ccccc2c1`, for which the AC50 under setting [1] was 31.6 µM [falling, partial curve, poor fit].

Consider `COc1ccc(OC)c(NC(=O)c2cccnc2Sc2cc(C)ccc2C)c1`, for which the AC50 under setting [1] is 6.51 µM [rising, partial curve, poor fit]. For `CCc1nnc(NC(=O)C2Cc3ccccc3C(=O)O2)s1` (configuration not stated), the AC50 under setting [1] was 29.1 µM [rising, single point]. For `O=C(Nc1ccc(-c2csc(Nc3cccc(C(F)(F)F)c3)n2)cc1)c1cccc(C(F)(F)F)c1`, the AC50 under setting [1] was 35.5 µM [falling, single point].
